In the supplement of paper PMC11006884:
This list holds what a sample rich in targets with a hit left over. Single values of this set are uncertain. Only a part is listed here, and it is no random draw.

Amino acid sequences for entries named in this document (tags omitted). A change or cut given only in a name is not applied to a line headed by its entry.
UniProt P07814: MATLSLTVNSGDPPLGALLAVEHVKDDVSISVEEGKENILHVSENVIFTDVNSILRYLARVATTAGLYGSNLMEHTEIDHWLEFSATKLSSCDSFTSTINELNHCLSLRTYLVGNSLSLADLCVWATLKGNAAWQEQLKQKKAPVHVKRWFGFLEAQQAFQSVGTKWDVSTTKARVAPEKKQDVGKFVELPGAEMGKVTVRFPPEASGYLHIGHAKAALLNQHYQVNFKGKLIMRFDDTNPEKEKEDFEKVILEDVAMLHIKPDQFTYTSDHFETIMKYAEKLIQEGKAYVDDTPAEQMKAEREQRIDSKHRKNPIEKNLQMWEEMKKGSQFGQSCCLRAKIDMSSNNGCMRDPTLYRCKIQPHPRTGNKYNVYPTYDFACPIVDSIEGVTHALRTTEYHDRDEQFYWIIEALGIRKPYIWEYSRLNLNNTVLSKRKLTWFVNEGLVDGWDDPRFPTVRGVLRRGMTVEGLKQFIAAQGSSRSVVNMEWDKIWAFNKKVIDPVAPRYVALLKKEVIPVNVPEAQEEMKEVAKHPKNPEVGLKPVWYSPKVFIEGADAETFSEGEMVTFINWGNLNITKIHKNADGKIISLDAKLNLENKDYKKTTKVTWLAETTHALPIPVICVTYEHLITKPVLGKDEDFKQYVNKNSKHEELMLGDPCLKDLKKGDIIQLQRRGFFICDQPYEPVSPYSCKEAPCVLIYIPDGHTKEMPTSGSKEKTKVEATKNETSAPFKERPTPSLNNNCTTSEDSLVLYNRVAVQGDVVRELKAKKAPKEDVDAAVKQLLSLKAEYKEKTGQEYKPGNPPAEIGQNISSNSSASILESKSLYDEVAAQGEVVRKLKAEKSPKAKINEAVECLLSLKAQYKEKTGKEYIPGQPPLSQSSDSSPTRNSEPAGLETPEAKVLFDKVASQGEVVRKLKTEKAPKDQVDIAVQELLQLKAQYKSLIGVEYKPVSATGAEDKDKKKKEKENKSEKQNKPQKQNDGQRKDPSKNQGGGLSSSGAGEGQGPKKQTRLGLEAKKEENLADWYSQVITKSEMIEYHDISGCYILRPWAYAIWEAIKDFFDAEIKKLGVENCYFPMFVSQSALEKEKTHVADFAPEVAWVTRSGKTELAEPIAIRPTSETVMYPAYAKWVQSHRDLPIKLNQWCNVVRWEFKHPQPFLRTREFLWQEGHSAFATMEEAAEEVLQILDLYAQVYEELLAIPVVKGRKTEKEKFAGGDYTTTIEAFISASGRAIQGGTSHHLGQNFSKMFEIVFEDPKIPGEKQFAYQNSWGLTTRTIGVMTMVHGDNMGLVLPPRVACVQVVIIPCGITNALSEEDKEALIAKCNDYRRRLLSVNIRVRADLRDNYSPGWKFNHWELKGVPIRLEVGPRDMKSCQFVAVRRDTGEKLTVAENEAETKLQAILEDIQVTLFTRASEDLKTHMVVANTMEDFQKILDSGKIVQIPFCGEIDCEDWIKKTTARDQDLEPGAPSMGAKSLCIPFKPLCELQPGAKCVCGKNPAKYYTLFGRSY
UniProt O95819: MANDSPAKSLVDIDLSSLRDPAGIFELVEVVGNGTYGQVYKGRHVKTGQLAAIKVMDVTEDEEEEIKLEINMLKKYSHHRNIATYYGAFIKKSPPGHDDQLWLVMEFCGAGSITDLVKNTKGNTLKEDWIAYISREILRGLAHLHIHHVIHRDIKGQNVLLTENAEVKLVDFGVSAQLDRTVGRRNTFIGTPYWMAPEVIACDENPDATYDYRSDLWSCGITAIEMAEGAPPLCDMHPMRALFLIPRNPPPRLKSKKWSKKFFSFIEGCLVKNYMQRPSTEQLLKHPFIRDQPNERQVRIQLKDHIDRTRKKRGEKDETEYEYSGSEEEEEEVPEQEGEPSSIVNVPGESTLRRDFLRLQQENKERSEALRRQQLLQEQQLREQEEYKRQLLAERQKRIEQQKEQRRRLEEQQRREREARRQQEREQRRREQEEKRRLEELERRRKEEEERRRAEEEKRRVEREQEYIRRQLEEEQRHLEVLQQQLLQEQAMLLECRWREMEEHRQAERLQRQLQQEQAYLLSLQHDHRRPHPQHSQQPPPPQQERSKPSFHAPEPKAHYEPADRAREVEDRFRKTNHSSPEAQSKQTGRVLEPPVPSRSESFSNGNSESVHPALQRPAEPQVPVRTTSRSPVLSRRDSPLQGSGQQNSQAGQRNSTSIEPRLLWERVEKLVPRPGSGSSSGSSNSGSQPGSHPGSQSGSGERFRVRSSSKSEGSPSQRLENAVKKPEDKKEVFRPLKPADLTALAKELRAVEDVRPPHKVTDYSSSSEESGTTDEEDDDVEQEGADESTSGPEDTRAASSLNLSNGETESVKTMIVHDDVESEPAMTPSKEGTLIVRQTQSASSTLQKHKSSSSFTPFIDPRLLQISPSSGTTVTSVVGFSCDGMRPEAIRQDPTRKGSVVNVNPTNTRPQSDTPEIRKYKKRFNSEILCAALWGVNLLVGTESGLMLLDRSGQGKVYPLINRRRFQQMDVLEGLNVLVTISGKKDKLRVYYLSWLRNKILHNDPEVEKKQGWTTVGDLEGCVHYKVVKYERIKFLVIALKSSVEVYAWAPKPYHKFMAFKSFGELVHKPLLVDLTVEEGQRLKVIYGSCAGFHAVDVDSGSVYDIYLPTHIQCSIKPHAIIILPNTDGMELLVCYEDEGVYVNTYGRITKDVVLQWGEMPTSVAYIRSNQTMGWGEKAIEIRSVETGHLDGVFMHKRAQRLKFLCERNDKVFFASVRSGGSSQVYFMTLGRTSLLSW
UniProt O95347, whole entry, looked up: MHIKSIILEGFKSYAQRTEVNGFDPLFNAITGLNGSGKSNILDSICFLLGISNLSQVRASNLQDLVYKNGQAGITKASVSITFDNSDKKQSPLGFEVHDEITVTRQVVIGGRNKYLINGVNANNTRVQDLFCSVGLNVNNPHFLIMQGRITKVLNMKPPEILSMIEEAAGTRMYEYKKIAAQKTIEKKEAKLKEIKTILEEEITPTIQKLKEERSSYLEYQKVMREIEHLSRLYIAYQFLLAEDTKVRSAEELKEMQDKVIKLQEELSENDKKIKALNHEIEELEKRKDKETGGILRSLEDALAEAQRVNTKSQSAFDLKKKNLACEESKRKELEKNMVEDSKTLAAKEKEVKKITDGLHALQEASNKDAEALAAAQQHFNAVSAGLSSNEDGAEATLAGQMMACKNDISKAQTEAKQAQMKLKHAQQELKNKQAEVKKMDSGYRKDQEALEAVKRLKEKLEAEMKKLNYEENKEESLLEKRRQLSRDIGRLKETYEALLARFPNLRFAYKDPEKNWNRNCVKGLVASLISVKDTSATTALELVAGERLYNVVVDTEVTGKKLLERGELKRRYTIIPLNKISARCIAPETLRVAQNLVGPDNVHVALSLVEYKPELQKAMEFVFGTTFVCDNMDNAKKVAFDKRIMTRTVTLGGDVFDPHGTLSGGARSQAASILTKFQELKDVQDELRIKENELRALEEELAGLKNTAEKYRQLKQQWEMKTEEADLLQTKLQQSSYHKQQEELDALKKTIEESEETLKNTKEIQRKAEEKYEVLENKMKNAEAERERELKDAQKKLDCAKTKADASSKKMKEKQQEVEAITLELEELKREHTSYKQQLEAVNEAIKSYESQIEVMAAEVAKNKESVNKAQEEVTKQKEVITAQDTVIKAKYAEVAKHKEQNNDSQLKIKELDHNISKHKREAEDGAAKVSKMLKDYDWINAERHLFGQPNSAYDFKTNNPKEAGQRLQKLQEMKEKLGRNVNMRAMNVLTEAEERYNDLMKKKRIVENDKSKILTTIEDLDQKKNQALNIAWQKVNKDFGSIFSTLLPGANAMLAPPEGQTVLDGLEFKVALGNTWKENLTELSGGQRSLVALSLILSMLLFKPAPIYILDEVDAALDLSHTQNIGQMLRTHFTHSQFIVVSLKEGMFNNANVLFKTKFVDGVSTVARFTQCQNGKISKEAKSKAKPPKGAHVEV
UniProt O95373, whole entry, looked up: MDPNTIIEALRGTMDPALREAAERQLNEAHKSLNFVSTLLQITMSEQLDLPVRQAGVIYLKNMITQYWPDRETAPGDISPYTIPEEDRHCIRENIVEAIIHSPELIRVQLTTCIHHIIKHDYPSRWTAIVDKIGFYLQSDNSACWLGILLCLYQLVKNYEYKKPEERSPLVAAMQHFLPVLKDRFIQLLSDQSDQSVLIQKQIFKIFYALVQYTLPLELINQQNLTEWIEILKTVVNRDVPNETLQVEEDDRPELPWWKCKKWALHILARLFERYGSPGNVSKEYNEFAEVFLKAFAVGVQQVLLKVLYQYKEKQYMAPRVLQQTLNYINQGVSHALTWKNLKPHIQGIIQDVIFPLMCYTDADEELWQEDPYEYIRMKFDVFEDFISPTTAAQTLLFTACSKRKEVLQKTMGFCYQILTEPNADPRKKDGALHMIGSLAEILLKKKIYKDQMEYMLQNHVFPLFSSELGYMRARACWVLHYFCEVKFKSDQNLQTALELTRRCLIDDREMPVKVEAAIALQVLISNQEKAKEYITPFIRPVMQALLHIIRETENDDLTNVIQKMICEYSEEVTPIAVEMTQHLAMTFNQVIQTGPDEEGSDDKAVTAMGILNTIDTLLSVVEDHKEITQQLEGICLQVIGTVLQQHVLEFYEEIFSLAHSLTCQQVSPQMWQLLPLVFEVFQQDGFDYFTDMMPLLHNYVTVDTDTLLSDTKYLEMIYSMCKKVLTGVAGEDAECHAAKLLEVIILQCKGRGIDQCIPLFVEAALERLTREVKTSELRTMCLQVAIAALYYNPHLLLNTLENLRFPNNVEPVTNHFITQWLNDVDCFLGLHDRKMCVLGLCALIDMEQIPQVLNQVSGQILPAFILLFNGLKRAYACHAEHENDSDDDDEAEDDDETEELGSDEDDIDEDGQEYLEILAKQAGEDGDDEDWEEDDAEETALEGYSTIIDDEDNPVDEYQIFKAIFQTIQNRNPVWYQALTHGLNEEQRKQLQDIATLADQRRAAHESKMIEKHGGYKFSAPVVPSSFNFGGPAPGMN
UniProt O94992, whole entry, looked up: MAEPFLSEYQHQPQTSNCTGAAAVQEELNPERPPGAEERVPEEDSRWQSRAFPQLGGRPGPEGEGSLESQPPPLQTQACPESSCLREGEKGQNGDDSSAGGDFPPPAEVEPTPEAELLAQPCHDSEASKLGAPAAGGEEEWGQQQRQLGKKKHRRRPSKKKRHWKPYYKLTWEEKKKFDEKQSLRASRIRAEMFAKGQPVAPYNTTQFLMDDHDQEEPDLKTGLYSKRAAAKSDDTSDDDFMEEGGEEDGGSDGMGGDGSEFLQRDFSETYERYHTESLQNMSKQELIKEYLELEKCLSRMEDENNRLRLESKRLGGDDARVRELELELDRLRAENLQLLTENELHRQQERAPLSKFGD
UniProt P04075: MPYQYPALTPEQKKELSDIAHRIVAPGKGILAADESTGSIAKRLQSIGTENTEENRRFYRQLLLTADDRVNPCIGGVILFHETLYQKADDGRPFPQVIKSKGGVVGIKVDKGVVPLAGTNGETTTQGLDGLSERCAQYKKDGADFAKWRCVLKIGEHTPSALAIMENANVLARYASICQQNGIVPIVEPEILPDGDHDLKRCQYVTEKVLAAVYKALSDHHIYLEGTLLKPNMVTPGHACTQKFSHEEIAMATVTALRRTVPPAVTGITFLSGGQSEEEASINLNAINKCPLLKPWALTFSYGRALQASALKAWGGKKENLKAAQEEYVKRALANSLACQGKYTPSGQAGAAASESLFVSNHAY
UniProt P01106: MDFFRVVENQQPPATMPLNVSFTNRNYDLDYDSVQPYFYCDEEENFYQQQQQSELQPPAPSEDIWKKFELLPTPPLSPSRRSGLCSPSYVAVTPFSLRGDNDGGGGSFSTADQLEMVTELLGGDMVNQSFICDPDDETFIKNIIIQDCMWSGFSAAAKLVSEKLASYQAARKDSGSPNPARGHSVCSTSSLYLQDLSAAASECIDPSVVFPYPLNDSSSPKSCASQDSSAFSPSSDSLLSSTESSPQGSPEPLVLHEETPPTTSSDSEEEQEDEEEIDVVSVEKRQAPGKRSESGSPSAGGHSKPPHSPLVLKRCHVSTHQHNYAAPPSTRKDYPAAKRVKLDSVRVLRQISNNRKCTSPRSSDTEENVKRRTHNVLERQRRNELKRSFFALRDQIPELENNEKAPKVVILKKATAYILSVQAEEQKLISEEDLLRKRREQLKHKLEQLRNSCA
UniProt O95630, whole entry: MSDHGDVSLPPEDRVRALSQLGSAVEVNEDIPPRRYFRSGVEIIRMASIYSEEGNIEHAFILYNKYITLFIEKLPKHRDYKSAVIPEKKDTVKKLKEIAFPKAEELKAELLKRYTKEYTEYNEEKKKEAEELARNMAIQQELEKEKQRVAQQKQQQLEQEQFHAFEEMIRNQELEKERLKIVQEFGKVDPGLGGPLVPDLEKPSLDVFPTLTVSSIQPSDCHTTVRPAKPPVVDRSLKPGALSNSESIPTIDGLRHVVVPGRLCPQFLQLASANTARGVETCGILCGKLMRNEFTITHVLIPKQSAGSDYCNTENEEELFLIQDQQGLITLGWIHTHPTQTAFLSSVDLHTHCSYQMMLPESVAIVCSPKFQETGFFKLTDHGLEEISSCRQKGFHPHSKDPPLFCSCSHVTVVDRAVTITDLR

compound: COC(=O)/C=C/c1ccccc1 [methyl cinnamate]; assay: log2 ratio of iodoacetamide-alkyne labeling of the cysteine site, DMSO over compound (competition); higher = stronger covalent engagement of the cysteine by the compound, active = 1 or more; conditions: 500 µM; treatment time 1 h; system: HEK293T cell lysate
How it was run: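 HEK293T lysate at 2 mg/mL was treated with vehicle or electrophile (500 µM) for 1 h at ambient temperature, then labelled with iodoacetamide alkyne (1 h), clicked to sCIP-TMT reagents, pooled, digested with trypsin overnight at 37 °C, enriched on streptavidin and eluted with acid. Peptides were analysed by Orbitrap Eclipse LC-MS/MS with FAIMS and quantified in FragPipe, using duplicate channels and three replicates, with cysteines quantified in only one replicate excluded. The log2 competition ratio for each cysteine is the mean control-channel reporter intensity divided by the mean compound-channel reporter intensity.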

log2 ratio of iodoacetamide-alkyne labeling, inactive:
LDHA C163 (UniProt P00338) 0.194
UniProt O96028_C1102 0.151
EPRS C381 (UniProt P07814) 0.12
ENO1 C339 (UniProt P06733) -0.227
UniProt O95104_C102 -0.0213
MAP4K4 C202 (UniProt O95819) 0.708
EPRS C1377 (UniProt P07814) 0.118
UniProt P00519_C1100 0.318
SMC2 C1174 (UniProt O95347) 0.0209
SEC24B C1267 (UniProt O95487) 0.0903
UBE4B C448 (UniProt O95155) 0.0832
KIF20A C270 (UniProt O95235) 0.203
SASH1 C406 (UniProt O94885) 0.284
EPRS C1487 (UniProt P07814) 0.00376
UniProt P07437_C303 -0.0433
IPO7 C757 (UniProt O95373) 0.0599
UniProt P07437_C129 0.126
UniProt O95071_C739 -0.219
SOD1 C147 (UniProt P00441) -0.298
SEC24B C562 (UniProt O95487) 0.398
EPRS C350 (UniProt P07814) 0.0636
HEXIM1 C18 (UniProt O94992) 0.102
ALDOA C73 (UniProt P04075) -0.00633
MBD3 C172 (UniProt O95983) -0.0468
UniProt O94822_C237 0.259
AHSG C132 (UniProt P02765) 0.366
MYC C70 (UniProt P01106) 0.34
PGM3 C200 (UniProt O95394) 0.31
STAMBP C264 (UniProt O95630) 0.0809
AK1 C187 (UniProt P00568) 0.0975
ACSL3 C561 (UniProt O95573) 0.00662
AP2A1 C970 (UniProt O95782) 0.158
UniProt O94901_C63 0.252
ALDH2 C179 (UniProt P05091) 0.203
MBD4 C268 (UniProt O95243) 0.183
ALDOA C339 (UniProt P04075) -0.00708

Taken from the entries so far (six entries):
log2 ratio of iodoacetamide-alkyne labeling, inactive:
UniProt O94822_C237 0.259
AHSG C132 (UniProt P02765) 0.366
MYC C70 (UniProt P01106) 0.34
PGM3 C200 (UniProt O95394) 0.31
STAMBP C264 (UniProt O95630) 0.0809
AK1 C187 (UniProt P00568) 0.0975
